The first series concerns acyl-CoA synthetase. Put plainly: Enzymatic determination of fatty acids, decrease of NADH (Reference Examples 1 and 2). In kind it is biochemical, Candida lipolytica. Particulars: 10 nmol of fatty acid; reaction period 20 minutes.
As to `CCCCCCCCCCCCCCCCCC(=O)O` [Stearic acid], the “ΔO.D. at 334 nm” value came out at 0.230.

The series is the same for the next values; noted with them: 10 nmol of fatty acid; theoretical value 0.246.
Regarding `CCCCCCCCCCCCCCCC(=O)O` [Palmitic acid], the “ΔO.D. at 334 nm” value turned out to be 0.245.

Consider `CC/C=C\C/C=C\C/C=C\CCCCCCCC(=O)O` [Linolenic acid], for which the “ΔO.D. at 334 nm” value was 0.250.

On to `CCCCC/C=C\C/C=C\CCCCCCCC(=O)O` [Linoleic acid], for which the “ΔO.D. at 334 nm” value was determined as 0.240.

Turning to `CCCCCCCCCCCCCC(=O)O` [Myristic acid], the “ΔO.D. at 334 nm” value was found to be 0.210.

Consider `CCCCCCCC/C=C\CCCCCCCC(=O)O` [Oleic acid], for which the “ΔO.D. at 334 nm” value stood at 0.240.

As to `CCCCCC/C=C\CCCCCCCC(=O)O` [Palmitoleic acid], the “ΔO.D. at 334 nm” value was 0.235.

(Values after patent US4304864A, “Long-chain acyl-coenzyme-A synthetase” (Mitsubishi Chemical Industries, Limited, priority 1978, dated 1981).)
